According to paper PMC12259267, “Disruption of the KLHL37–N-Myc complex restores N-Myc degradation and arrests neuroblastoma growth in mouse models” (The Journal of Clinical Investigation, 2025):
Results are given in words; binding and its absence hold for the method and conditions named. For some assays here: Binding seen in cells or lysates may run through a third protein. Some binding calls cover weakened binding; strength is not graded here. For some assays here: Sequences can lack the tags named with a protein.

The chains behind the UniProt entries cited, without tags or fusion partners. Where a name states a change or a piece, a line headed by the entry shows the natural chain unless it says otherwise. A line that says so, or that is headed by a name, gives the form on record, which may keep a tag or linker. Residues count along the entry.
UniProt P01106: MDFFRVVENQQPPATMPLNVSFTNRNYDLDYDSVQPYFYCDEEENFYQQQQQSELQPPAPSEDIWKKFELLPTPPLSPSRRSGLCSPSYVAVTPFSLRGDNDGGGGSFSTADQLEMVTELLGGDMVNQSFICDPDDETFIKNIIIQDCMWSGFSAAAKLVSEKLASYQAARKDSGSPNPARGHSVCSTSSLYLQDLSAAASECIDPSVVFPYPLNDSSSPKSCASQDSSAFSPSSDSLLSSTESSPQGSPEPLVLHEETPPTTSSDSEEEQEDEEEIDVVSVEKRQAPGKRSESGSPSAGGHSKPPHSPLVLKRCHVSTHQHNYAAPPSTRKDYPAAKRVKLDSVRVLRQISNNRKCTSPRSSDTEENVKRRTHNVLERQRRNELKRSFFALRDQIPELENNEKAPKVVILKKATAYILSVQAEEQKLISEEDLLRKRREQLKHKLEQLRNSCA
UniProt P04198: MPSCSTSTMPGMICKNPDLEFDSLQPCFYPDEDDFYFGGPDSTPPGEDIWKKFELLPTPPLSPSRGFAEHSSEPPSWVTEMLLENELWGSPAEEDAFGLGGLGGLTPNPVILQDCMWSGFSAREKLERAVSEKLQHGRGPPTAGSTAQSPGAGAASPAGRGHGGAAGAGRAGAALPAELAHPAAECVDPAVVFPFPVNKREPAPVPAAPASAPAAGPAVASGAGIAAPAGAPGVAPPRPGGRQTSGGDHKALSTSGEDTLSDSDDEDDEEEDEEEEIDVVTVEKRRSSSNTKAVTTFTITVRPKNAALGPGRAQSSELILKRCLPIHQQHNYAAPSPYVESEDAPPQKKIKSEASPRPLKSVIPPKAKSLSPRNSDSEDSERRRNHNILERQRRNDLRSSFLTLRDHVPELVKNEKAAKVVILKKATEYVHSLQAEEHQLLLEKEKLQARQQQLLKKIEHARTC
N-Myc 1–89 aa segment: residues 1-89 of P04198
N-Myc 1–89 aa segment with T58 and S62 mutated (T58A/S62A) (P04198, form named): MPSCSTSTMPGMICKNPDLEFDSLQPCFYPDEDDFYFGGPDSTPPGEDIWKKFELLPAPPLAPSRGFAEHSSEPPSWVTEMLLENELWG

Columns and labels:
[1] = molecular target: recombinant GST-C-Myc protein (UniProt P01106); test: pull-down; in vitro co-IP: recombinant KLHL37-His incubated with GST fusion protein at RT (25°C) for 3 hours, then GST resin (preblocked with 1% BSA); IP: GST, IB: KLHL37; both purified
N-Myc-Flag wild type = N-Myc-Flag wild type (UniProt P04198); test: co-IP; cells transfected 48 h, lysed in RIPA buffer; lysate with IP beads (anti-Flag or anti-HA) at 4°C overnight; washed 5 times (50 mmol/L Tris-HCl, 150 mmol/L NaCl, 1% NP40, pH 8.0); immunoblot
[2] = molecular target: N-Myc-Flag T58A/S62A mutant (UniProt P04198); test: as above
N-Myc–Flag = N-Myc–Flag (UniProt P04198); test: co-IP; HEK-293T cells transfected 48 hours with plasmids overexpressing the proteins; RIPA lysis buffer; IP beads at 4°C overnight; immunoblotting
[3] = molecular target: N-Myc-1-89aa-HA T58A/S62A mutant (UniProt P04198); test: co-IP; cells transfected 48 h, lysed in RIPA buffer; lysate with IP beads (anti-Flag or anti-HA) at 4°C overnight; washed 5 times (50 mmol/L Tris-HCl, 150 mmol/L NaCl, 1% NP40, pH 8.0); immunoblot
[4] = molecular target: N-Myc-1-89aa-HA wild type (UniProt P04198); test: as above
N-Myc 1–89 aa segment = N-Myc 1–89 aa segment (UniProt P04198); test: co-IP; HEK-293T cells transfected 48 hours with plasmids overexpressing the proteins; RIPA lysis buffer; IP beads at 4°C overnight; immunoblotting
[5] = molecular target: N-Myc 1–89 aa segment with T58 and S62 mutated (T58A/S62A) (UniProt P04198); test: as above
[6] = molecular target: N-Myc (overexpressed in HEK293T, Figure 4F) (UniProt P04198); test: as above
[7] = molecular target: endogenous N-Myc (human (endogenous in SK-N-BE(2))) (UniProt P04198); test: proximity ligation; in situ PLA in SK-N-BE(2) cells with antibodies to KLHL37 and N-Myc; also after RTA-408 (1 μM) with MG132 (4 μM)
recombinant GFP–C-Myc = recombinant GFP–C-Myc (UniProt P01106); test: MST; GFP–N-Myc or GFP–C-Myc at 200 nM in PBS-T (0.05% Tween 20); KLHL37-His serially diluted 16 times from 27.3 nM (N-Myc) or 7 μM (C-Myc); mixed 1:1; EC50 fitted; both purified

B1: recombinant KLHL37-His protein (protein, UniProt O14682 1-589)
chain: MSVSVHENRKSRASSGSINIYLFHKSSYADSVLTHLNLLRQQRLFTDVLLHAGNRTFPCHRAVLAACSRYFEAMFSGGLKESQDSEVNFDNSIHPEVLELLLDYAYSSRVIINEENAESLLEAGDMLEFQDIRDACAEFLEKNLHPTNCLGMLLLSDAHQCTKLYELSWRMCLSNFQTIRKNEDFLQLPQDMVVQLLSSEELETEDERLVYESAINWISYDLKKRYCYLPELLQTVRLALLPAIYLMENVAMEELITKQRKSKEIVEEAIRCKLKILQNDGVVTSLCARPRKTGHALFLLGGQTFMCDKLYLVDQKAKEIIPKADIPSPRKEFSACAIGCKVYITGGRGSENGVSKDVWVYDTLHEEWSKAAPMLVARFGHGSAELKHCLYVVGGHTAATGCLPASPSVSLKQVEHYDPTINKWTMVAPLREGVSNAAVVSAKLKLFAFGGTSVSHDKLPKVQCYDQCENRWTVPATCPQPWRYTAAAVLGNQIFIMGGDTEFSACSAYKFNSETYQWTKVGDVTAKRMSCHAVASGNKLYVVGGYFGIQRCKTLDCYDPTLDVWNSITTVPYSLIPTAFVSTWKHLPS
binding [1]: binds

B2: KLHL37-HA (protein, UniProt O14682 1-589)
chain: B1 chain
binding (N-Myc-Flag wild type): binds
binding [2]: binds
binding (N-Myc–Flag): binds

B3: KLHL37-Flag (protein, UniProt O14682 1-589)
chain: B1 chain
binding [3]: binds
binding [4]: binds

B4: WT KLHL37 (overexpressed in HEK-293T, Figures 4F and 4J) (protein, UniProt O14682 1-589)
chain: B1 chain
binding (N-Myc 1–89 aa segment): binds
binding [5]: binds
binding [6]: binds

B5: endogenous KLHL37 (protein, UniProt O14682 1-589)
chain: B1 chain
binding [7]: binds

B6: KLHL37-His recombinant protein (protein, UniProt O14682 1-589)
chain: B1 chain
binding (recombinant GFP–C-Myc): binds
